# Test results as given in the supplement of paper PMC10373366.
# Structures can show the parent of a compound that is named as a salt. Some of the results follow. Most values come without repeats; read them as rough.
# Test system: A2780
# Assay: cell growth inhibition ratio vs untreated control (CCK8); higher = stronger inhibition of cell viability
# Conditions: 10 µM; 48 h
# Experimental: (§1)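 Natural product library (Topscience) screened at 10 µM final concentration for 48 h on ovarian cancer A2780 cells and patient-derived ovarian cancer cells (PDC) in 96-well plates; viability read by CCK8 and reported as inhibition ratio (%) relative to untreated control. Single-dose primary screen.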
row,SMILES,cell growth inhibition ratio [%]
1,c1cc2c(cc1[C@H]1OC[C@H]3[C@@H]1CO[C@@H]3c1ccc3c(c1)OCO3)OCO2 [Sesamin],6.39
2,COc1ccc2c(c1)[nH]c1c(C)nccc12 [Harmine],58.3
3,C[C@@H]1CC[C@H]2[C@@H](C)C(=O)O[C@@H]3O[C@@]4(C)CC[C@@H]1[C@]32OO4 [Artemisinin],-36.6
4,CC(=O)O[C@H]1[C@H]2[C@@H](OC(=O)Cc3ccccc3)[C@@H](C)C[C@]2(OC(C)=O)C(=O)/C(C)=C/[C@@H]2[C@H](CC[C@@]13CO3)C2(C)C [Euphorbiasteroid],30.9
5,C/C=C(\C)C(=O)N[C@@H](c1ccccc1)[C@@H](O)C(=O)O[C@H]1C[C@@]2(O)[C@@H](OC(=O)c3ccccc3)[C@@H]3[C@]4(OC(C)=O)CO[C@@H]4C[C@H](O)[C@@]3(C)C(=O)[C@H](OC(C)=O)C(=C1C)C2(C)C [Cephalomannine],83.8
6,O=C1C=CC[C@@H]2[C@H]3CCCN4CCC[C@@H](CN12)[C@@H]34 [Sophocarpine],2.9
7,NCCc1c[nH]c2ccccc12 [Tryptamine],4.1
8,CN1[C@@H]2CC[C@H]1C[C@@H](OC(=O)C(CO)c1ccccc1)C2 (some centres not stated) [Atropine],14.8
9,CC(=O)OC12COC1CC(O)C1(C)C(=O)C(O)C3=C(C)C(O)CC(O)(C(OC(=O)c4ccccc4)C21)C3(C)C (configuration not stated) [10-Deacetylbaccatin III],72.2
10,CC[C@H]1CN2CC[C@H]1C[C@@H]2[C@@H](O)c1ccnc2ccc(OC)cc12 [Hydroquinidine],-50.3
11,C=C[C@H]1CN2CC[C@H]1C[C@H]2[C@H](O)c1ccnc2ccccc12 [Cinchonidine],-13.5
12,C[C@]12CC[C@H]3[C@@H](CCC4=CC(=O)CC[C@@]43C)[C@@H]1CC[C@@H]2O [Testosterone],9.74
13,C[C@]12CC[C@H](O)C[C@@H]1CC[C@@H]1[C@@H]2CC[C@]2(C)C(=O)CC[C@@H]12 [Epiandrosterone],9.32
14,CN1[C@@H]2C[C@@H](OC(=O)[C@H](CO)c3ccccc3)C[C@H]1[C@@H]1O[C@@H]12 [Scopolamine HBr],-1.09

# Test system: patient-derived ovarian cancer cells (PDC)
# Assay: as above
# Conditions: 10 µM; 48 h
# Experimental: as §1
row,SMILES,cell growth inhibition ratio [%]
1,NCCc1ccccc1 [Phenethylamine],-9.44
2,c1cc2c(cc1[C@H]1OC[C@H]3[C@@H]1CO[C@@H]3c1ccc3c(c1)OCO3)OCO2 [Sesamin],-14.6
3,COc1cc2c(c(OC)c1OC)-c1ccc(OC)c(=O)cc1[C@@H](NC(C)=O)CC2 [Colchicine],46.4
4,COc1cc2c3c(c1OC)-c1ccccc1C[C@H]3N(C)CC2 [Nuciferine],2
5,CNC(=O)Oc1ccc2c(c1)[C@]1(C)CCN(C)[C@@H]1N2C [Physostigmine Salicylate],-4.42
6,CC[C@@]1([C@@H]2O[C@@H]([C@H]3O[C@@](O)(CO)[C@H](C)C[C@@H]3C)C[C@@H]2C)CC[C@H]([C@]2(C)CC[C@]3(C[C@H](O)[C@@H](C)[C@@H]([C@@H](C)[C@@H](OC)[C@H](C)C(=O)O)O3)O2)O1 [Monensin sodium salt],-10.5
7,COc1ccc2c(c1)[nH]c1c(C)nccc12 [Harmine],39.3
8,C[C@@H]1CC[C@H]2[C@@H](C)C(=O)O[C@@H]3O[C@@]4(C)CC[C@@H]1[C@]32OO4 [Artemisinin],-20.7
9,CCC1=CC2CN3CCc4c([nH]c5ccccc45)C(C(=O)OC)(C2)C13 (configuration not stated) [Catharanthine sulfate],24.9
10,C[C@H]1CCC/C=C/[C@@H]2C[C@H](O)C[C@H]2[C@H](O)/C=C/C(=O)O1 [Brefeldin A],85.6
11,CC(=O)O[C@H]1[C@H]2[C@@H](OC(=O)Cc3ccccc3)[C@@H](C)C[C@]2(OC(C)=O)C(=O)/C(C)=C/[C@@H]2[C@H](CC[C@@]13CO3)C2(C)C [Euphorbiasteroid],11.9
12,C/C=C(\C)C(=O)N[C@@H](c1ccccc1)[C@@H](O)C(=O)O[C@H]1C[C@@]2(O)[C@@H](OC(=O)c3ccccc3)[C@@H]3[C@]4(OC(C)=O)CO[C@@H]4C[C@H](O)[C@@]3(C)C(=O)[C@H](OC(C)=O)C(=C1C)C2(C)C [Cephalomannine],61.5
13,C[C@@]1(C(=O)O)CC[C@]2(C)CC[C@]3(C)C4=CC(=O)c5c(cc(O)c(O)c5C=O)[C@]4(C)CC[C@@]3(C)[C@@H]2C1 [Demethylzeylasteral],-6.65
